The results in this text go back to the supplement of paper PMC12889115.

Some of the results follow. Values are raw readings; no control value is given beside them.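 First-pass screen: polymyxin B was added at a level that permeabilizes the Salmonella outer membrane while sparing the inner membrane. DMSO wells, with and without polymyxin B, defined maximum growth. Because plates differed from one another, each plate's data were ranked separately and the compounds with the lowest OD600 were carried forward as hits.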

This assay deals with Salmonella enterica serovar Typhimurium SL1344. Description: bacterial growth OD600 after 18 h with compound and polymyxin B; higher = more bacterial growth (less inhibition). As to conditions: 50 µM, Mueller-Hinton broth.

On to `CN(c1ncccc1CNC(=O)c1ccc2[nH]cnc2c1)C1CCCCC1`, for which, where the note is “polymyxin B 1 µg/mL”, the “bacterial growth OD600” value came to 0.91. On the same count and under the same terms, the same measure for `CCOC(=O)CCNC(=O)N1CCC(CC2CCCCO2)(C(=O)OCC)CC1` (stereo not drawn): 0.904. In the case of `CCN1CCN(C2(C(=O)NCc3ccc(C)s3)Cc3ccccc3C2)CC1`, for the setting “polymyxin B 0.75 µg/mL”, the “bacterial growth OD600” value stood at 0.836. Consider `O=C(CCc1cnccn1)N1CCCC(CCc2ccccc2)C1` (stereo not drawn), for which the “bacterial growth OD600” value (polymyxin B 0.75 µg/mL) is 0.824.

`CO[C@H]1[C@H](NC(=O)c2ccco2)c2ccccc2C12CCN(CC1=CC[C@H]3C[C@@H]1C3(C)C)CC2`: under “polymyxin B 0.75 µg/mL”, the “bacterial growth OD600” value came out at 0.842. On the same count and under the same terms, the same measure for `Cc1nc(C(C)NC2CCN(c3ccc(NC(=O)CCCCc4ccccc4)cc3)CC2)cs1` (stereo not drawn): 0.796. As to `CC(=O)NCC(=O)N1CCCC(C(=O)Nc2cccc(-c3ccc(F)cc3)c2)C1` (stereo not drawn), under “polymyxin B 1 µg/mL”, the “bacterial growth OD600” value turned out to be 0.993. Take `COc1cc(CC2(CCC(=O)NCCc3ccccc3OC)CCC(=O)N2)ccc1F` (stereo not drawn): for the setting “polymyxin B 0.75 µg/mL”, the “bacterial growth OD600” value was 0.738.
